The source of these data is PubChem BioAssay AID190 (DTP/NCI, 2004).

The assay deals with AKR/Lw mice, AKR lymphoma ip, median survival T/C. The experiment in a line: NCI In Vivo Anticancer Drug Screen. Data for tumor model Lymphoma AKR (Transplanted) (intraperitoneal) in AKR/Lw mice. To be noted: T/C endpoint: median survival time, schedule: Q01DX001 (ip), higher T/C = longer survival. The procedure:
The antitumor activity of compounds was measured in mice bearing transplantable tumors. Survival or tumor size were measured and the results are expressed as the measurement made in the treated group (T) divided by the measurement made in the vehicle treated control group (C). The tumor model used in this assay is Lymphoma AKR (Transplanted) (intraperitoneal) in AKR/Lw mice

The mark [1] stands for this setting: dose: 400.0 mg/kg/injection, vehicle: saline.

The list does not hold the whole screen: it gathers tests that were run many times, whatever their T/C, doses with no T/C, and many T/C values between a quarter and a half above the control. Other doses and runs of a compound stand elsewhere. T/C gives the treated animals as a percentage of the vehicle group. Some entries give survivors of the animals treated and no T/C: the source holds a T/C of zero for them, seemingly a mark for toxic or unscored doses. Some survivor counts are full or nearly so, which does not show that the dose was tolerated: the source hardly ever lists a survival T/C far under the control, and the zero likely stands for such cases as well. Counts of survivors are from the toxicity check (mostly the fifth day) where no day follows; animals may have died later. Schedule codes are those of the source, taken here to give the interval after Q, in days (D) or hours (H), and the number of doses after X.

On to `c1ccc2c(c1)CNCc1ccccc1-2`, for which the survivor count reads like this: (dose: 200.0 mg/kg/injection, vehicle: saline) 0 of 10; under setting [1], 0 of 10.
On to `C=CCN(CC=C)c1ccc(N(CC)CC)cc1`, for which the survivor count (dose: 400.0 mg/kg/injection, vehicle: Klucel (hydroxypropylcellulose) (HPC)) is on record as 5 of 10.
With `O=C(O)/C=C/C(=O)Nc1cccc(Oc2ccc([N+](=O)[O-])cc2[N+](=O)[O-])c1`, the survivor count under setting [1] is 8 of 10.
